The list shows a part of the results. The calls rarely recur for the same compound in another form.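 Kinases were expressed as nanoluciferase fusions in K562 cells and luminescence was read every 4 h between 2 and 18 h as percent of control, DMSO set to 100% and a positive control to 0%. A time point counts as decreased when the signal drops significantly (2 sigma). The hit call is the authors' own, does not follow from the count of time points alone, and its rule is not shown.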
How the values were obtained:
Experiment in all cases: kinase-Nluc reporter destabilization hit call (1 = scored as downregulated) (binary); higher = compound decreases kinase abundance
Details in all cases: K562; 2-18 h
RET = RET (UniProt P07949)
[1] = biological target: RET_M918T (clone: RET_mut) (UniProt P07949)
RIOK1 = RIOK1 (UniProt Q9BRS2)
RIPK1 = RIPK1 (UniProt Q13546)
RIPK2 = RIPK2 (UniProt O43353)
ROR2 = ROR2 (UniProt Q01974)
RPS6KA1 = RPS6KA1 (UniProt Q15418)
SPHK1 = SPHK1 (UniProt Q9NYA1)
SRC = SRC (UniProt P12931)
STK24 = STK24 (UniProt Q9Y6E0)

By UniProt entry, the sequences of proteins in these tests, tags left out. Where a name states a change or a piece, a line headed by the entry shows the natural chain unless it says otherwise.
UniProt P07949, whole entry, looked up: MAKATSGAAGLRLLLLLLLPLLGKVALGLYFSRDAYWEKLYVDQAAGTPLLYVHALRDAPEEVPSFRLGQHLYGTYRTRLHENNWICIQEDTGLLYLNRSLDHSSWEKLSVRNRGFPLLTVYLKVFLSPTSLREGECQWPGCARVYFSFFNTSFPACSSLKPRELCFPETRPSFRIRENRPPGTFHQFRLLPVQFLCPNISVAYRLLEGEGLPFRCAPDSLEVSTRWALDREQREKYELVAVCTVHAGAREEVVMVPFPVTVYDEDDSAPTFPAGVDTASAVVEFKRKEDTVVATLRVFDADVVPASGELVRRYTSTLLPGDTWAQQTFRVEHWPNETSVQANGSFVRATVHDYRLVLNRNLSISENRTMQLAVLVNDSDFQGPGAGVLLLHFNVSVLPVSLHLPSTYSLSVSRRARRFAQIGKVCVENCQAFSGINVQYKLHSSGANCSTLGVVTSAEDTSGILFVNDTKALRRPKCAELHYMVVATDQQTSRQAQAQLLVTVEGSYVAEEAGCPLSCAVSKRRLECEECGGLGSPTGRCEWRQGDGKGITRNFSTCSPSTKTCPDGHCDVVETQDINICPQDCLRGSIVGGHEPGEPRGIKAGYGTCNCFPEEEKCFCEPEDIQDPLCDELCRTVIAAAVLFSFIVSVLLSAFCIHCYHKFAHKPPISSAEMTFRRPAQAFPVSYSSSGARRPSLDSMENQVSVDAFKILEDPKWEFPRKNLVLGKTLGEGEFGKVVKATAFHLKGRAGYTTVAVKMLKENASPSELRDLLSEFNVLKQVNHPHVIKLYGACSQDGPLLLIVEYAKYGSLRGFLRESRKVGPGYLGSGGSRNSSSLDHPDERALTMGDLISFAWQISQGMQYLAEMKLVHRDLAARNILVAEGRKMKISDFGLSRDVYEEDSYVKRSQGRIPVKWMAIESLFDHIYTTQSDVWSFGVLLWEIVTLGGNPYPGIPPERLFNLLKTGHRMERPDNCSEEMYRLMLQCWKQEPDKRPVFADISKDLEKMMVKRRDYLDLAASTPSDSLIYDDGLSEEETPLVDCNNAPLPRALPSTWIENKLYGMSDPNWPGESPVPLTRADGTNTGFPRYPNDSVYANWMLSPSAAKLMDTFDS
UniProt P07949, whole entry M918T, looked up: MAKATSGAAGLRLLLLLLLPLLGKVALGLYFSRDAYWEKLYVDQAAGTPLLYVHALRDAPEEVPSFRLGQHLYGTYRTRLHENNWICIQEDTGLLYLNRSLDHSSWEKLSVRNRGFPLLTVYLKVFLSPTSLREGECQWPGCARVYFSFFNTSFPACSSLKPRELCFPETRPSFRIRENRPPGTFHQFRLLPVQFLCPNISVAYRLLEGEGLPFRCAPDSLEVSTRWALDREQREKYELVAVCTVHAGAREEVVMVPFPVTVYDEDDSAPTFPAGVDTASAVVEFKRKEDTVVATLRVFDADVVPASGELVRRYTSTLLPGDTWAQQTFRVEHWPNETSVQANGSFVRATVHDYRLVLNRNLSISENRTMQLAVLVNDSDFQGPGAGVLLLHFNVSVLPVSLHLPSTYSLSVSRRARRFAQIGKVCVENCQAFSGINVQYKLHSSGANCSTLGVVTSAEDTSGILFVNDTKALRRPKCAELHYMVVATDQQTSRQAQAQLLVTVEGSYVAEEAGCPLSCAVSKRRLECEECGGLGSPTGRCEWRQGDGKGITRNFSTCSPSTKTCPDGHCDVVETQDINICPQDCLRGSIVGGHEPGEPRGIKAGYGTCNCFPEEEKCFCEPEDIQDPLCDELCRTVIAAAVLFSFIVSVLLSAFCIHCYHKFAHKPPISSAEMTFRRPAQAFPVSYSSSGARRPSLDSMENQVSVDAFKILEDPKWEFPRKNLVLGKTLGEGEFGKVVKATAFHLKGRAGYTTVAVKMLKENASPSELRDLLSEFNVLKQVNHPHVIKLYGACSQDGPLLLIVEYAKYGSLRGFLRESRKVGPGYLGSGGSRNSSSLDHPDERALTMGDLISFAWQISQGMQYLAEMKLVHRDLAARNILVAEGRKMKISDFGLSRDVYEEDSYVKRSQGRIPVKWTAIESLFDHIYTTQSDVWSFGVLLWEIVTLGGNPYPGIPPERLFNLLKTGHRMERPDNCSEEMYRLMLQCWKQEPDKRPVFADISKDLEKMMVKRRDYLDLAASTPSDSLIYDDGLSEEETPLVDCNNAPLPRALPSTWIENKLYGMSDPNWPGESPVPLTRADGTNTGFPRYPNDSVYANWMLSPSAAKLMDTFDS
UniProt Q9BRS2: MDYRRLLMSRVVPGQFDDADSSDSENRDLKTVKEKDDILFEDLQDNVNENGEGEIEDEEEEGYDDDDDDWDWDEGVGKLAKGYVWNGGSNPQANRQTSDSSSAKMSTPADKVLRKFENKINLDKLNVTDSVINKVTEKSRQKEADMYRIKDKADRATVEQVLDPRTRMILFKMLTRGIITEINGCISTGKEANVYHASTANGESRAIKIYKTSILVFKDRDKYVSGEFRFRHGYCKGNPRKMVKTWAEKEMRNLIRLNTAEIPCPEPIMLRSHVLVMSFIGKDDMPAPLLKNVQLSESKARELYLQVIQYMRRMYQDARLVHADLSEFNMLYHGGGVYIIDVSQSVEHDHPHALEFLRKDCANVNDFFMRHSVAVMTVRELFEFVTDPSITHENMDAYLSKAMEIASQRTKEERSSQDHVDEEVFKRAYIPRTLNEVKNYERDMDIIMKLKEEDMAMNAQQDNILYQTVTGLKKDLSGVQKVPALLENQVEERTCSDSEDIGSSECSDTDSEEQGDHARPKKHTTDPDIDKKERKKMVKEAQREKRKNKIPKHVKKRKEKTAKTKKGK
UniProt Q13546: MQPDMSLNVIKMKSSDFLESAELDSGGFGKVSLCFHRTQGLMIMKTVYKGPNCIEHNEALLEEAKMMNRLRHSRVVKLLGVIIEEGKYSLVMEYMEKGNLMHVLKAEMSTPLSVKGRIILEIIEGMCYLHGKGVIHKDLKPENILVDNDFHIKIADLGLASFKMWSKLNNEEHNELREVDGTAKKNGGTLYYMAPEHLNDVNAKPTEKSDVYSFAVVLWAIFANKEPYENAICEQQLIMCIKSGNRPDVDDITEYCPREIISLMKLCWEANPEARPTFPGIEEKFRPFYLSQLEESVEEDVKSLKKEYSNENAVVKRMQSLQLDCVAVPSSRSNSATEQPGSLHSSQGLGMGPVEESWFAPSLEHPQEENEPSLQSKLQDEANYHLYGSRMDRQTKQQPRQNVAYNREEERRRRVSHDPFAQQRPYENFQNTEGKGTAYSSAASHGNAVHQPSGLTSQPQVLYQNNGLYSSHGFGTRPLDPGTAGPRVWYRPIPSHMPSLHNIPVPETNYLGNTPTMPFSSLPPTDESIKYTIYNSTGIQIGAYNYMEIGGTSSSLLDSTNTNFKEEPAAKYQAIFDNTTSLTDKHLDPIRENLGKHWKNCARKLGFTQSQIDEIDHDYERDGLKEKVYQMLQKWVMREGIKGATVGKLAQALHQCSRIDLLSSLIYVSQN
UniProt Q01974, whole entry: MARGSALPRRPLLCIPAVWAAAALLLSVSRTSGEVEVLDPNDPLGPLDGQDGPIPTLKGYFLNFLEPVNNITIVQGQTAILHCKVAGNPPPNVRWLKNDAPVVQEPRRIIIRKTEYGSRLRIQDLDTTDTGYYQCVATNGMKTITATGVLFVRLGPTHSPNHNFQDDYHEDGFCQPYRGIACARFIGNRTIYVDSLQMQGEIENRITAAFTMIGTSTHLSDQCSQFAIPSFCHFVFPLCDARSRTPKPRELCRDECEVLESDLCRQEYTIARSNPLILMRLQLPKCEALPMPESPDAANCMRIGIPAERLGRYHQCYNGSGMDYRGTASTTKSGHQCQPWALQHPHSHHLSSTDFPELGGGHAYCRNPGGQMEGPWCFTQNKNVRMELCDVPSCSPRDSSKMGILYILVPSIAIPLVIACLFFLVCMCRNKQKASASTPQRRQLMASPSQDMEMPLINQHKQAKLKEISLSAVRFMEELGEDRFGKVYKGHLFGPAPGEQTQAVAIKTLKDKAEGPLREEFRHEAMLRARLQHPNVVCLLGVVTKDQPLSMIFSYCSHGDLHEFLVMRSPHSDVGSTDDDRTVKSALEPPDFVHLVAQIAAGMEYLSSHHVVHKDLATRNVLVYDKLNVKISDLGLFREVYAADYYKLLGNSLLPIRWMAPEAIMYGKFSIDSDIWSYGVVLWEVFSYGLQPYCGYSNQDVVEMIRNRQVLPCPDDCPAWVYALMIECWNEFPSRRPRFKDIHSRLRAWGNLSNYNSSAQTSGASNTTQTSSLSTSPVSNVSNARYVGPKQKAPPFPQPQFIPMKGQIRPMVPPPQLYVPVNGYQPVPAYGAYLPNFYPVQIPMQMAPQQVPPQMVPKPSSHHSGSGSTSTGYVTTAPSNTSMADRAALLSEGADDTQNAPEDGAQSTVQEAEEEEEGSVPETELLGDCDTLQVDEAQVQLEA
UniProt Q15418, whole entry: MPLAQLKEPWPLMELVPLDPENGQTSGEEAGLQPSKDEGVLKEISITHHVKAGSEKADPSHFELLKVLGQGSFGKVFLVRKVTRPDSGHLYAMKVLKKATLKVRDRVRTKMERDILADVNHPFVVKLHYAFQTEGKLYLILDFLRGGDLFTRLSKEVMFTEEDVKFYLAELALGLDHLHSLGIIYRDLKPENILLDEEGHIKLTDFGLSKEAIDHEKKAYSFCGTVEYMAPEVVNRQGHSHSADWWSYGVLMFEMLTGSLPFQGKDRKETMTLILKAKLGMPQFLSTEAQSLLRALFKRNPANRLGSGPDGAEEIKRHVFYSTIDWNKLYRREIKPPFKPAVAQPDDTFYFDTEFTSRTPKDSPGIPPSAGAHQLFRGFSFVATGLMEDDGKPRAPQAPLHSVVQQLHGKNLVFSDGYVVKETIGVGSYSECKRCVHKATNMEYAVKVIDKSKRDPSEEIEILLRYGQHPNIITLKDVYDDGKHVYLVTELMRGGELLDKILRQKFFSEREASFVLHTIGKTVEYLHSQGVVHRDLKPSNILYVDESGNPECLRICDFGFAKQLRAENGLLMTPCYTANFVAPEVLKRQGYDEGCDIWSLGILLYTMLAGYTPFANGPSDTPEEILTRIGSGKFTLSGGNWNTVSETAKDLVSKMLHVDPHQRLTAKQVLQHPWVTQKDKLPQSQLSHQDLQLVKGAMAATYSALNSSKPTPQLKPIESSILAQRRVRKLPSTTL
UniProt Q9NYA1, whole entry: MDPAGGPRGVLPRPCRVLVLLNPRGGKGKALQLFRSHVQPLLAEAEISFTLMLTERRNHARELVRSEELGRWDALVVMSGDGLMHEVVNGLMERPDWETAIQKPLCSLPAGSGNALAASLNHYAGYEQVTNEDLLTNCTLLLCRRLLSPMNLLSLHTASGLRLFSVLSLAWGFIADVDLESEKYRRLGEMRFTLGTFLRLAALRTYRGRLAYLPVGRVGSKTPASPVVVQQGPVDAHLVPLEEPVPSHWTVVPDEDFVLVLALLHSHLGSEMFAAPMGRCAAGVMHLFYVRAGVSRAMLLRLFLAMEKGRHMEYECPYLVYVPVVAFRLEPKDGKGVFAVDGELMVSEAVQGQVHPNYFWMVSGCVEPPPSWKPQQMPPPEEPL
UniProt Q9Y6E0: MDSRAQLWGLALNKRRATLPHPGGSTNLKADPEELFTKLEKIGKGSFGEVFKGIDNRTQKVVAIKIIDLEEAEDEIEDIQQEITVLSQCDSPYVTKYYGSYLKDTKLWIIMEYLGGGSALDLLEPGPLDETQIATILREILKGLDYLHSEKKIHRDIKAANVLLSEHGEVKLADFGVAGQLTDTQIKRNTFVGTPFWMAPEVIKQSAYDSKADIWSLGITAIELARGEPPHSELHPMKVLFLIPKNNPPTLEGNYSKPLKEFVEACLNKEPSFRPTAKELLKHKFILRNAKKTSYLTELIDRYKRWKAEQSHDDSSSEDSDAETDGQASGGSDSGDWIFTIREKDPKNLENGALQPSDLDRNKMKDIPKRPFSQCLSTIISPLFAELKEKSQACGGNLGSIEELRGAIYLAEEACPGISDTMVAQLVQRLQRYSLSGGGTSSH

Measured: kinase-Nluc reporter destabilization hit call

NS(=O)(=O)c1ccc(N2N=C(c3ccccc3)CC2c2ccccc2)cc1 (stereo not given) (10 µM)
inactive: RET 0 | [1] 0 | RIOK1 = 0 | RIPK1 = 0 | RIPK2 = 0 | ROR2 = 0 | RPS6KA1 = 0 | SPHK1 = 0 | SRC 0 | STK24 = 0

COc1ccc(CCNc2ncc3c(=O)n(-c4cccc(F)c4)c(=O)[nH]c3n2)cc1OC (2 µM)
inactive: RET 0 | [1] 0 | RIOK1 = 0 | RIPK1 = 0 | RIPK2 = 0 | ROR2 = 0 | RPS6KA1 = 0 | SPHK1 = 0 | SRC 0 | STK24 = 0

N#C/C(=C(/N)Sc1ccc(N)cc1)c1ccccc1C(F)(F)F (10 µM)
inactive: RET 0 | [1] 0 | RIOK1 = 0 | RIPK1 = 0 | RIPK2 = 0 | ROR2 = 0 | RPS6KA1 = 0 | SPHK1 = 0 | SRC 0 | STK24 = 0
